# Experimental data: article PMC7819943, “Rice protein-binding microarrays: a tool to detect cis-acting elements near promoter regions in rice”
# Amino acid sequences for entries named in this document (tags omitted).
# UniProt Q0JBA9, entry or part of it: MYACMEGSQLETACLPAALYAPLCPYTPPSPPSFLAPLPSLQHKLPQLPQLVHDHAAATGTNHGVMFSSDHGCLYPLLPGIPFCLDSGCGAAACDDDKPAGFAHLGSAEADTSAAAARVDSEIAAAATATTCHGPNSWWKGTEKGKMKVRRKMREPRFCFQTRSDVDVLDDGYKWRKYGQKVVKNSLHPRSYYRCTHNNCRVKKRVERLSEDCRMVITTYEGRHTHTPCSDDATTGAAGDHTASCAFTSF
# This is one part of the list.
# Target: OsWRKY34 (Oryza sativa, UniProt Q0JBA9 1-250)
# Test: protein-binding microarray (RPBM); PBS, 2% BSA, 51.3 ng/ul salmon testes DNA, 50 uM zinc acetate, 200 nM TF, 25 C, 1 h; high values mean tight binding
# Conditions: protein: recombinant; tags: N-terminal polyhistidine and DsRed monomer fusion (pET32a); label: CyDye5-dUTP incorporated in the synthesized complementary strand; 3' TTTTT single-stranded linker to array surface; dsDNA, one strand shown
# Summary of the method: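 Per-feature fluorescence intensity (arbitrary units), read on an Axon 4000B scanner, is the binding signal. Transcription factors carrying an N-terminal polyhistidine tag and DsRed fusion were expressed in E. coli BL21-CodonPlus and purified on Ni–NTA. A custom Agilent array, made double-stranded by primer extension with Cy5-dUTP and blocked with 2% BSA, was incubated with 200 nM protein in PBS, 2% BSA, salmon testes DNA and 50 µM zinc acetate at 25 °C for 1 h and then washed.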
row,Sequence,binding signal
1,CTACAAGTACGAGCCATATCTCTCGCGTCAATGCTTGCGACGGAGTCACCTAGTGCAG,10000 fluorescence intensity (a.u.)
2,AATAGCCTCGTCCCTGTAAACTCCCAATCCCTTTTTAAAACGGAGTCACCTAGTGCAG,8420 fluorescence intensity (a.u.)
3,GAACTGAAATGTGTGGCTTAGTTAATTCTCTTACAGCAACCGGAGTCACCTAGTGCAG,8640 fluorescence intensity (a.u.)
4,TCTTGTCTTGTTATTTTACCATATTTATAATTTTTTTGACCGGAGTCACCTAGTGCAG,10700 fluorescence intensity (a.u.)
5,CGCCTCCTCCCTTCACACGTTCATCTGCTTCTCTCTCTCACGGAGTCACCTAGTGCAG,8270 fluorescence intensity (a.u.)
6,TTGTCGTGTCACCTCCATTCTCACCCAACTTCCTTACCTACGGAGTCACCTAGTGCAG,13300 fluorescence intensity (a.u.)
7,CTACTCGTTTATTGACTTATTGTCCATCATAGATTCTAAACGGAGTCACCTAGTGCAG,8370 fluorescence intensity (a.u.)
8,TCACCTACTCTACTCCTCCTCGCCGCCGCCGCCGCTGCTGCGGAGTCACCTAGTGCAG,8610 fluorescence intensity (a.u.)
9,CATCAAAATTTTCCTACACGCATAAATTTTCAACTTTTTTCGGAGTCACCTAGTGCAG,8190 fluorescence intensity (a.u.)
10,CAGCGGCGAAGGGAGATCTCAACCGGAGGAGGAGGAGGGGCGGAGTCACCTAGTGCAG,9260 fluorescence intensity (a.u.)
11,ATACTCCCTCTGTTTCACAATATAAATCATTTTATTATTTCGGAGTCACCTAGTGCAG,9260 fluorescence intensity (a.u.)
12,CATTCACGTGCCACATCAACTTGATCACGAACTTTGAATACGGAGTCACCTAGTGCAG,10600 fluorescence intensity (a.u.)
13,TCTTCAAGGCCATATATCCGCATATCGTGTGTTTCTTTTGCGGAGTCACCTAGTGCAG,12500 fluorescence intensity (a.u.)
14,CAACCGCCGCTCGATTCAAACTCACACGTCGCACCACAGCCGGAGTCACCTAGTGCAG,8400 fluorescence intensity (a.u.)
15,TTTAGACAAATTCTAGGGGTGTTATGGTTTCTTTATGAGACGGAGTCACCTAGTGCAG,10300 fluorescence intensity (a.u.)
16,CCAGACCCACTCGCCGTCGCCGCCGCCGCCTCCGCCTACTCGGAGTCACCTAGTGCAG,11000 fluorescence intensity (a.u.)
17,TCCCTTGTCTTCAAACCACATCTGTGCATCATTTTTTCCCCGGAGTCACCTAGTGCAG,8480 fluorescence intensity (a.u.)
18,GCTAAATACCAGCGAAGCAGTCGCCCGCGCAAACGCGCGCCGGAGTCACCTAGTGCAG,8220 fluorescence intensity (a.u.)
19,AACATGCTTGGAATTGGTCGCTCCGTCATCTACATTGTCACGGAGTCACCTAGTGCAG,10300 fluorescence intensity (a.u.)
20,AGTACTAACATGCATCTTGGATATTTTTATGCTCGCCTATCGGAGTCACCTAGTGCAG,8820 fluorescence intensity (a.u.)
21,GTTTTGGAATATTACAAGTGGGTCCCACTCCACCTCTTATCGGAGTCACCTAGTGCAG,8350 fluorescence intensity (a.u.)

row,Sequence,binding signal
1,CTCTGCCTCTGCCTCTCTATAAAAACCGCCAGAGTAGACACGGAGTCACCTAGTGCAG,8220 fluorescence intensity (a.u.)
2,CGTCCTCTGCCACGTCTTGTCGATTTGTCTTCCGTCAGCACGGAGTCACCTAGTGCAG,11200 fluorescence intensity (a.u.)
3,TCCACTCCCTGTCGCGCGCCACGTCGCCTGCTGCCGCCCGCGGAGTCACCTAGTGCAG,10400 fluorescence intensity (a.u.)
4,ACTTGGTAGTGCTAACTCTTAAATTTAACTTTAGAAATTGCGGAGTCACCTAGTGCAG,8220 fluorescence intensity (a.u.)
5,AAGTTTTCTTTAACCACTGGTTCCCGTTCCATTTCTTGCACGGAGTCACCTAGTGCAG,8800 fluorescence intensity (a.u.)
6,ACCCAAGCCTCCGCCGCCGTTCCCATCTCCTCGTCCTCCGCGGAGTCACCTAGTGCAG,10600 fluorescence intensity (a.u.)
7,CAGTGCTTCATGGGTTCATGCATCTACAGTGTGCTTCTGACGGAGTCACCTAGTGCAG,9130 fluorescence intensity (a.u.)
8,TGCCCTTAAAAATAATCTCATATTTTTCTTTCAGTTCTATCGGAGTCACCTAGTGCAG,8250 fluorescence intensity (a.u.)
9,GATGTGCCAATGGTTTCTTTCTCTTTCTTTCTCTTTAAAACGGAGTCACCTAGTGCAG,8910 fluorescence intensity (a.u.)
10,GAACATTCAGAAATTTCTGTGCAATATTATCTCATGACCTCGGAGTCACCTAGTGCAG,9350 fluorescence intensity (a.u.)
11,ACCATTATTTCTTTTTGTACAACCCAAATTGCACCACTGACGGAGTCACCTAGTGCAG,10400 fluorescence intensity (a.u.)
12,GATTGTGTCGCCCACCGCCTCGTCGACATCTGCACGTCTCCGGAGTCACCTAGTGCAG,9130 fluorescence intensity (a.u.)
13,GCTACATTTTGAGACGGGGTGGTATAAATTTTAACCTTTGCGGAGTCACCTAGTGCAG,8170 fluorescence intensity (a.u.)
14,TGTTTTTTTTTTTCTACTACATAGCTGCATTCACCGTATCCGGAGTCACCTAGTGCAG,9620 fluorescence intensity (a.u.)
15,ACGTATCGCGCATTCGCACGCAACGTGCCATTTTTGCACACGGAGTCACCTAGTGCAG,8220 fluorescence intensity (a.u.)
16,TCCCTACTTTTCTCGAGTTTTTTTTTTTTGGTTGCGACTGCGGAGTCACCTAGTGCAG,9490 fluorescence intensity (a.u.)
17,CGTCCTGCAGCCGCATCCGCCCACCCCGTGCACCCGGTCTCGGAGTCACCTAGTGCAG,8730 fluorescence intensity (a.u.)
18,CCTTCCCCTATCATGCATGTCCTCTTCTGTTCCGACTCCCCGGAGTCACCTAGTGCAG,12600 fluorescence intensity (a.u.)
19,TTAAATAAGACAAATGGTCAAACATGTGCTAAAAAGTCAACGGAGTCACCTAGTGCAG,10600 fluorescence intensity (a.u.)
20,CCATGTTCCCTTTTTTTTTACCTTCAGTTTCAAAATGTTACGGAGTCACCTAGTGCAG,8340 fluorescence intensity (a.u.)
21,AAGGCGCACAAGATCTTAATTCACTCACGGATTTCTCAAACGGAGTCACCTAGTGCAG,8400 fluorescence intensity (a.u.)

# Some of the entries so far, bar-delimited.
row | Sequence | binding signal
1 | CTCTGCCTCTGCCTCTCTATAAAAACCGCCAGAGTAGACACGGAGTCACCTAGTGCAG | 8220 fluorescence intensity (a.u.)
2 | CGTCCTCTGCCACGTCTTGTCGATTTGTCTTCCGTCAGCACGGAGTCACCTAGTGCAG | 11200 fluorescence intensity (a.u.)
3 | TCCACTCCCTGTCGCGCGCCACGTCGCCTGCTGCCGCCCGCGGAGTCACCTAGTGCAG | 10400 fluorescence intensity (a.u.)
4 | ACTTGGTAGTGCTAACTCTTAAATTTAACTTTAGAAATTGCGGAGTCACCTAGTGCAG | 8220 fluorescence intensity (a.u.)
5 | AAGTTTTCTTTAACCACTGGTTCCCGTTCCATTTCTTGCACGGAGTCACCTAGTGCAG | 8800 fluorescence intensity (a.u.)

# (continued)

row,Sequence,binding signal
1,GCACCTCGCAATATCCATGGTCCCCGCTGCCCGTGGACTCCGGAGTCACCTAGTGCAG,10300 fluorescence intensity (a.u.)
2,CTAAATATTTGACGCCGTTGACTTTTTAAAACATGTTTGACGGAGTCACCTAGTGCAG,30500 fluorescence intensity (a.u.)
3,GTATGGTTGGTTGGTTGGTTTGTTGGGTTTCTCCCCGGCCCGGAGTCACCTAGTGCAG,33300 fluorescence intensity (a.u.)
4,TCATTCAATATTTACTCGATCGTCATCCATCTCTAAACACCGGAGTCACCTAGTGCAG,8860 fluorescence intensity (a.u.)
5,AAGATATACTTATGATACCATATCCCAATTTTATTTTTTTCGGAGTCACCTAGTGCAG,9190 fluorescence intensity (a.u.)
6,CTGATTGATCCCCTTTGCAGAGTTACGTCCTTGTTAAGCACGGAGTCACCTAGTGCAG,9060 fluorescence intensity (a.u.)
7,GTCGCTCTCTGCTCCTCCTCGTCCCTCGCGCCGTCACCACCGGAGTCACCTAGTGCAG,12500 fluorescence intensity (a.u.)
8,AGGAGGGTGTGGGTGCGGGGAAATCGTGTGCTGCTGAGCTCGGAGTCACCTAGTGCAG,10800 fluorescence intensity (a.u.)
9,CCTACACACATACAATTCTCCTTAATTAATTCGATCGACACGGAGTCACCTAGTGCAG,9210 fluorescence intensity (a.u.)
10,CTGCAGCTTTATGTCAGTTTCCCTACTTTGTGTGTGTTTTCGGAGTCACCTAGTGCAG,10600 fluorescence intensity (a.u.)
11,ACTAATTAACCAGTGGAACTGTTGCTGTTGCTGTCATGCACGGAGTCACCTAGTGCAG,8120 fluorescence intensity (a.u.)
12,TTTTTTTTGCGCATGATGTAGCATCTCCAAACAGAAATGCCGGAGTCACCTAGTGCAG,8880 fluorescence intensity (a.u.)
13,TGCAGGCCCAACCCTTTTTCTCCTCCATCGCCGAGAAGTCCGGAGTCACCTAGTGCAG,8420 fluorescence intensity (a.u.)
14,CACATGTCGCCTCCTCGCTGTCTCCGCCCAGTCCGCCAGCCGGAGTCACCTAGTGCAG,8480 fluorescence intensity (a.u.)
15,ACCCCATATGTCAACCACATGACATATTTTTTTCTCCTCTCGGAGTCACCTAGTGCAG,8170 fluorescence intensity (a.u.)
16,CCAGTTCCAATTTTCCATGGCGACCTTGGCGCGCGTCTCCCGGAGTCACCTAGTGCAG,10900 fluorescence intensity (a.u.)
17,AATATCTCATACTCCTACCTTCTTTTGGAATTTCCTCTGACGGAGTCACCTAGTGCAG,9710 fluorescence intensity (a.u.)
18,CTGTGACCGCCACCGTCGTGGCACCGCGCTCCTTCTCTCCCGGAGTCACCTAGTGCAG,8640 fluorescence intensity (a.u.)
19,GCCCCATCCATCTAATGCAAGTGCTGGTTGCTTGTGTCGACGGAGTCACCTAGTGCAG,8580 fluorescence intensity (a.u.)
20,CCCACCGTTTCCAAATGTTTGACGCCGTTGACTTTTTATCCGGAGTCACCTAGTGCAG,31900 fluorescence intensity (a.u.)
21,GCACCTACTAGCTTATTATTCTTGTGCCTAGTATTAATTACGGAGTCACCTAGTGCAG,9590 fluorescence intensity (a.u.)

row,Sequence,binding signal
1,AATCTGTGGGCAGGGGCGGCGACGTCGGCGGGCGAGGGCTCGGAGTCACCTAGTGCAG,8660 fluorescence intensity (a.u.)
2,AATACTCCTCATATGCTTAGTTGTTTAGTAGTGTTAATTACGGAGTCACCTAGTGCAG,12000 fluorescence intensity (a.u.)
3,ACTGTGCAATTAATTTTTTTTCGTCCACATTTAATGTTCCCGGAGTCACCTAGTGCAG,8630 fluorescence intensity (a.u.)
4,TCTGAAGATGAGAGAGAGCTCACAGTTTATGGTTTTTGTACGGAGTCACCTAGTGCAG,8830 fluorescence intensity (a.u.)
5,CTCCAATTCAGCCATTATTCACCTATCTTCTCCAGCCATGCGGAGTCACCTAGTGCAG,8260 fluorescence intensity (a.u.)
6,TGTTTCTAAGATCTTCGTCCTAGCACATATACCATCACATCGGAGTCACCTAGTGCAG,11000 fluorescence intensity (a.u.)
7,ATTATGGTTGTCTGTCTGTGTCCTGTGCTCTCTAGATACACGGAGTCACCTAGTGCAG,10300 fluorescence intensity (a.u.)
8,GTGTTGTGGTTTACTGAATTGATGTTTGGCTTAAGTGATGCGGAGTCACCTAGTGCAG,11800 fluorescence intensity (a.u.)
9,TACAATCCAACCCTATATACCCTCGTTGCCATCTGTCTTACGGAGTCACCTAGTGCAG,13000 fluorescence intensity (a.u.)
10,GGTTGTTGAGATTAGTCCTATCCTTTGTACACGCCACGGCCGGAGTCACCTAGTGCAG,10900 fluorescence intensity (a.u.)
11,CTCTCGCCGTCGCTTGCCCCTCGCGCCACCGCGTCCGCCTCGGAGTCACCTAGTGCAG,8700 fluorescence intensity (a.u.)
12,AGAAGTTACTCCCTACATTTACTTTTGATATGCATATTTCCGGAGTCACCTAGTGCAG,10700 fluorescence intensity (a.u.)
13,GACTCCATCTCCCTCTTCGTCGACGTCGCCGGCGGCGGCGCGGAGTCACCTAGTGCAG,8130 fluorescence intensity (a.u.)
14,GTTGAGTCTGCCCTCGTAACCACCAACTAACATGTAAGCCCGGAGTCACCTAGTGCAG,9750 fluorescence intensity (a.u.)
15,GGGGCGGATAGGGGAGAACGAAGCGTGCGCGATCTGATCGCGGAGTCACCTAGTGCAG,8850 fluorescence intensity (a.u.)
16,CCTCGCGCTCTCTCTCTTCTTTCCCTCGGCCGCGCGGCCGCGGAGTCACCTAGTGCAG,10400 fluorescence intensity (a.u.)
17,CCTCCACACTCGCGGCGACCTCGTCGGCCTGTCACCTTTCCGGAGTCACCTAGTGCAG,8280 fluorescence intensity (a.u.)
18,ACGTTTTGCAATCCTCTGTTGTGTAGTTCTTTTTTATTAGCGGAGTCACCTAGTGCAG,8970 fluorescence intensity (a.u.)
19,ATACTCAAACCCCAATATTAGTTTACTCTCACGTTATCTTCGGAGTCACCTAGTGCAG,8550 fluorescence intensity (a.u.)
20,CCTCTCCCTCGTGTTCCGCGCACACCATTTTTAAATAACTCGGAGTCACCTAGTGCAG,8320 fluorescence intensity (a.u.)
21,CTTTTATTTTTCATTTTTCCAATATGCTAGTATTTCTTTCCGGAGTCACCTAGTGCAG,9440 fluorescence intensity (a.u.)
